From the supplement of paper PMC12873370
Values joined by “and” are separate entries in the source; they are usually repeats but may differ in a detail not shown here. Equal values may be shown once. Some of the results follow. Many values rest on one well or one pass, so single values are uncertain.

What was measured:
[1] = test system: MEPP (mouse ovarian epithelium Trp53/Pten KO); assay: cell viability relative to untreated (fraction); higher = less growth inhibition; conditions: 5 µM; 3 days
[2] = test system: PREPP (mouse prostate epithelium Trp53/Pten KO); assay: as above; conditions: 5 µM; 3 days

Row | SMILES | cell viability [1] | cell viability [2]
1 | C=C1C(=O)O[C@@H]2C[C@@]3(C)CCC[C@H](C)C3=C[C@H]12 | 1.17 | 1.04
2 | CO/N=C(\C(=O)N[C@@H]1C(=O)N2C(C(=O)OCOC(=O)C(C)(C)C)=C(/C=C\c3scnc3C)CS[C@H]12)c1csc(N)n1 | 1.01 | 0.909
3 | Nc1nc2c(ncn2[C@@H]2O[C@H](CO)[C@@H](O)[C@H]2O)c(=O)[nH]1 | 1.42 | 1.11
4 | O=C(O)CCNC(=O)c1ccccc1 | 1.18 | 0.99
5 | C=C1/C(=C\C=C2/CCC[C@]3(C)[C@@H]([C@H](C)CCCC(C)(C)O)CC[C@@H]23)C[C@@H](O)C[C@@H]1O | 0.829 | 0.949
6 | C/C(=C\C(=O)OCCCCCCCCC(=O)O)C[C@@H]1OC[C@H](C[C@@H]2O[C@H]2[C@@H](C)[C@H](C)O)[C@@H](O)[C@H]1O | 0.801 | 0.929
7 | O=C(c1ccccc1)c1ccccc1 | 1.23 | 0.968
8 | Cc1c[nH]c2ccccc12 | 1.29 | 0.993
9 | O=C(O)C1CCC(O)CC1 (configuration not stated) | 0.843 | 1.2
10 | O=C(O)c1c[nH]c(=O)[nH]c1=O | 0.989 | 1.09
11 | C[C@@H]1CCCCCCCCCCCCC(=O)C1 | 1.06 | 0.766
12 | Nc1ncnc2c1ncn2[C@@H]1O[C@@H]2COP(=O)(O)O[C@H]2[C@H]1O | 0.854 | 0.984
13 | CN1CCC[C@H]1c1cccnc1 | 0.858 | 1.3
14 | C[C@H](N)C(=O)N[C@@H](CCC(N)=O)C(=O)O | 0.784 | 0.915
15 | CC[C@H](C)[C@H](N)C1=N[C@H](C(=O)N[C@@H](CC(C)C)C(=O)N[C@H](CCC(=O)O)C(=O)N[C@H](C(=O)N[C@H]2CCCCNC(=O)[C@H](CC(N)=O)NC(=O)[C@@H](CC(=O)O)NC(=O)[C@H](Cc3cnc[nH]3)NC(=O)[C@@H](Cc3ccccc3)NC(=O)[C@H]([C@@H](C)CC)NC(=O)[C@@H](CCCN)NC2=O)[C@@H](C)CC)CS1 | 0.946 | 0.832
16 | O=C1c2c(O)cc(O)cc2OC(c2ccc(O)c(O)c2)C1O (configuration not stated) | 1.37 | 1.47
17 | CC(CN(C)C)CN1c2ccccc2CCc2ccccc21 (configuration not stated) | 1.13 | 0.921
18 | C[C@H](CCC(=O)NCCS(=O)(=O)O)[C@H]1CC[C@H]2[C@@H]3[C@H](O)C[C@@H]4C[C@H](O)CC[C@]4(C)[C@H]3CC[C@]12C | 1.03 | 1.07
19 | COc1ccc(C=CC(=O)O)cc1O | 1.59 | 0.921
20 | COc1c(N2CCNC(C)C2)c(F)cc2c(=O)c(C(=O)O)cn(C3CC3)c12 (configuration not stated) | 1.06 | 0.723
21 | C[C@@H](O)CC(=O)O | 0.903 and 1.25 | 0.977 and 1.01

Random excerpt: 2 records from the list
Row | SMILES | cell viability [1] | cell viability [2]
9 | O=C(O)C1CCC(O)CC1 (configuration not stated) | 0.843 | 1.2
12 | Nc1ncnc2c1ncn2[C@@H]1O[C@@H]2COP(=O)(O)O[C@H]2[C@H]1O | 0.854 | 0.984

(listing goes on)

Row | SMILES | cell viability [1] | cell viability [2]
22 | Cc1cnc(C(=O)O)c[n+]1[O-] | 1.03 | 0.88
23 | Nc1ccccc1C(=O)C[C@H](N)C(=O)O | 1.03 | 1.08
24 | O=C(/C=C/c1ccc(O)cc1)c1ccc(O)cc1O | 2.07 | 0.879
26 | CCn1cc(C(=O)O)c(=O)c2ccc(C)nc21 | 0.884 | 0.891
27 | Cc1cc(-n2c(=O)[nH]c(=O)n(C)c2=O)ccc1Oc1ccc(SC(F)(F)F)cc1 | 0.872 | 0.899
28 | CC1=CC(=O)C(C(C)C)=CC1=O | 1.02 | 0.911
29 | NCCC(=O)O | 0.937 | 1
30 | Cl.N=C(N)NCCC[C@H](N)C(=O)O | 0.752 and 1.29 | 0.922 and 1.08
31 | O=C1c2ccccc2C(=O)c2c(O)c(O)cc(O)c21 | 1.28 | 0.91
32 | C=C1CC[C@@H]2[C@](C)(CO)[C@H](O)CC[C@@]2(C)[C@H]1C/C=C1\C=COC1=O | 1.84 | 1
33 | O=C(Oc1cc(S(=O)(=O)c2ccccc2)ccc1[N+](=O)[O-])c1ccc(Cl)cc1 | 0.818 | 1.07
34 | Clc1ncnc2nc[nH]c12 | 0.941 | 1
35 | O=C(O)/C=C/c1ccc(O)c(O)c1 | 1.03 | 1.07
36 | O=C(O)c1ccccn1 | 1.18 | 0.951
37 | CCOc1ccc2ccccc2c1C(=O)N[C@@H]1C(=O)N2[C@@H]1SC(C)(C)[C@@H]2C(=O)O | 0.927 | 0.906
38 | NC(=O)CCCCC1CCSS1 (configuration not stated) | 0.725 | 1.06
39 | C[N+](C)(C)CC(=O)O | 1.15 and 1.14 | 1.04 and 1.06
40 | COc1cc(-c2coc3cc4c(c(OC)c3c2=O)OCO4)cc(OC)c1OC | 1.48 | 0.993
41 | COc1c(O)cc2occ(-c3ccc(O)cc3)c(=O)c2c1O | 1.16 | 0.99
